According to PubChem BioAssay AID1347076 (National Center for Advancing Translational Sciences (NCATS), 2019):
The campaign covered roughly 400,000 compounds. About 13,000 (3.2%) were called active. The shares of active, inactive and inconclusive entries below differ from those in the screen. Calls follow the shape of the dose curve; as a rule, active = well fitted cell-killing curve with a large enough effect; inconclusive = small, poorly fitted or top-dose-only effect, or effect the other way; inactive = flat fitted curve, though single readings scatter. Potencies beside an inconclusive call are fits to weak or partial responses and may not hold up.

assay: qHTS assay for MDR1-selective chemotherapeutics: Primary screen using the drug-selected MDR subline cells KB-V1; conditions: KB-V1 MDR cells viability, CellTiter-Glo, 72 h; activity change, negative = cytotoxicity: at 46.1 µM (top of the series); also: nearly all actives have a fitted effect of over 60% in size
Outline: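 Following 72 h at 37 degrees C with compound, KB-V1 cell viability was read by CellTiter-Glo luminescence, medium being phenol-red-free DMEM plus 10% FBS; concentration-response parameters came from normalized, curve-fitted qHTS data.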
% is scaled to controls: 0 for no effect and ±100 for the full control effect; potency is read from the fitted curve at half-maximal effect.

Row | SMILES | Potency | activity change, negative = cytotoxicity
1 | C/C(=N\NC(=O)c1cc(O)ccc1O)c1cccc(NC(=O)c2cccc(Cl)c2)c1 | inconclusive: 25.9 µM [rising, partial curve, poor fit] | –
2 | CS/C(=N\S(=O)(=O)c1ccc(F)cc1)c1ccccc1 | inconclusive: 29.1 µM [cytotoxic, single point] | –
3 | COc1ccc(N2CCN(C3CCCN(S(=O)(=O)c4ccc(C)cc4C)C3)CC2)cc1 (stereo unspecified) | inactive | –
4 | Cc1nn(-c2ccc(C(=O)O)cc2)c(C)c1Cl | inconclusive: 13 µM [rising, partial curve, poor fit] | –
5 | COc1ccc(CCC(=O)OCC(=O)Nc2ccccc2)cc1 | inactive | –
6 | COc1ccc(-n2nc3c(c2NC(=O)CCl)CSC3)cc1 | inconclusive: 29.1 µM [cytotoxic, single point] | –
7 | Cc1cc(C)nc(SCc2nnc(SCC(=O)Nc3cc(C(F)(F)F)ccc3Cl)o2)n1 | inactive | –
8 | COC(=O)[C@@]12C[C@@H](CC(=O)N3CCC(c4ccccc4)CC3)C(=O)N(Cc3cccc4ccccc34)C1=CCC(C)(C)C2 | inactive | –
9 | C[C@H]1C(=O)N(C)CCN1Cc1cn(C)nc1-c1ccc(Oc2ccccc2)cc1 | inconclusive: 20.6 µM [cytotoxic, single point] | –
10 | CC1(C(=O)NCc2ccc(F)c(F)c2)Cc2c(-c3ccccc3)ccnc2O1 (stereo unspecified) | inconclusive: 23.1 µM [cytotoxic, single point] | –
11 | CC1(C)CCC[C@]2(C)C(CS(=O)c3ccccc3)=C(C=O)CC[C@@H]12 (stereo partly specified) | inconclusive: 29.1 µM [cytotoxic, single point] | –
12 | COc1ccccc1CNC(=O)C1CC(c2ccccc2C(F)(F)F)=NO1 (stereo unspecified) | inconclusive: 20.6 µM [rising, partial curve, poor fit] | –
13 | CCOC(=O)c1c(-c2ccccc2)csc1NC(=O)c1cc2ccccc2oc1=O | inconclusive: 4.61 µM [cytotoxic, full curve] | –
14 | Cc1cccc(NC(=O)c2ccc(S(=O)(=O)N3CCCCCC3)cc2)n1 | inconclusive: 10.3 µM [cytotoxic, partial curve, poor fit] | –
15 | C=C(C)CNC(=S)N/N=C(\C)c1ccc(Cl)s1 | inconclusive: 18.4 µM [cytotoxic, single point] | –
16 | Cc1ccc(S(=O)(=O)N2CCN(c3ccc([N+](=O)[O-])c(Sc4nncn4C)c3)CC2)cc1 | inconclusive: 29.1 µM [cytotoxic, single point] | –
17 | COc1ccc(N2CCN(CCCNC(=O)c3ccc4nc(N5CCCCC5)sc4c3)CC2)cc1 | inactive | –
18 | Cc1cc(C)cc(N(CC(=O)N2CCCCCC2)S(C)(=O)=O)c1 | – | inconclusive: -95.4%
19 | CCOC(=O)c1c(S(=O)(=O)NCCCc2ccco2)c(C)n(C)c1C | inconclusive: 0.0326 µM [cytotoxic, full curve] | –
20 | CC1(C)CC(N2CCN(c3ccccc3)CC2)=CC(=[N+]2CCCC2)C1 | inactive | –
21 | Cc1ccc(C(=O)c2cnc3ccccc3c2-c2ccccc2)cc1 | active: 16.4 µM | –
22 | O=C(CSc1ncccn1)Nc1ccc2c(c1)CCC2 | inconclusive: 25.9 µM [rising, single point] | –
23 | Cc1ccc(N2C(=O)CSC23C(=O)N(CC(=O)Nc2ccccc2F)c2ccccc23)cc1C (stereo unspecified) | inconclusive: 29.1 µM [cytotoxic, single point] | –
24 | CCOc1ccc(CN(C)CC(=O)Nc2ccc([N+](=O)[O-])cc2Cl)cc1 | active: 16.4 µM | –

Among those listed so far, these contain a carbonyl joined to an NH by a bond outside any ring.
Row | SMILES | Potency | activity change, negative = cytotoxicity
1 | C/C(=N\NC(=O)c1cc(O)ccc1O)c1cccc(NC(=O)c2cccc(Cl)c2)c1 | inconclusive: 25.9 µM [rising, partial curve, poor fit] | –
5 | COc1ccc(CCC(=O)OCC(=O)Nc2ccccc2)cc1 | inactive | –
6 | COc1ccc(-n2nc3c(c2NC(=O)CCl)CSC3)cc1 | inconclusive: 29.1 µM [cytotoxic, single point] | –
7 | Cc1cc(C)nc(SCc2nnc(SCC(=O)Nc3cc(C(F)(F)F)ccc3Cl)o2)n1 | inactive | –
10 | CC1(C(=O)NCc2ccc(F)c(F)c2)Cc2c(-c3ccccc3)ccnc2O1 (stereo unspecified) | inconclusive: 23.1 µM [cytotoxic, single point] | –
12 | COc1ccccc1CNC(=O)C1CC(c2ccccc2C(F)(F)F)=NO1 (stereo unspecified) | inconclusive: 20.6 µM [rising, partial curve, poor fit] | –
13 | CCOC(=O)c1c(-c2ccccc2)csc1NC(=O)c1cc2ccccc2oc1=O | inconclusive: 4.61 µM [cytotoxic, full curve] | –
14 | Cc1cccc(NC(=O)c2ccc(S(=O)(=O)N3CCCCCC3)cc2)n1 | inconclusive: 10.3 µM [cytotoxic, partial curve, poor fit] | –
17 | COc1ccc(N2CCN(CCCNC(=O)c3ccc4nc(N5CCCCC5)sc4c3)CC2)cc1 | inactive | –
22 | O=C(CSc1ncccn1)Nc1ccc2c(c1)CCC2 | inconclusive: 25.9 µM [rising, single point] | –
23 | Cc1ccc(N2C(=O)CSC23C(=O)N(CC(=O)Nc2ccccc2F)c2ccccc23)cc1C (stereo unspecified) | inconclusive: 29.1 µM [cytotoxic, single point] | –
24 | CCOc1ccc(CN(C)CC(=O)Nc2ccc([N+](=O)[O-])cc2Cl)cc1 | active: 16.4 µM | –

(further entries)

Row | SMILES | Potency | activity change, negative = cytotoxicity
25 | Cc1nc2c(C)cccn2c1/C(O)=C1\C(=O)C(=O)N(CCN(C)C)C1c1cccs1 (stereo unspecified) | inactive | –
26 | CCCCn1nnnc1C(c1cccc2ccccc12)N1CCN(C/C=C/c2ccccc2)CC1 (stereo unspecified) | inconclusive: 18.4 µM [cytotoxic, single point] | –
27 | CN1C2CCC1/C(=C\c1ccc(F)cc1)C(=O)/C2=C/c1ccc(F)cc1 | active: 23.1 µM | –
28 | CN(Cc1ccccc1)Cc1ccccc1C(O)c1ccccc1 (stereo unspecified) | inactive | –
29 | CCCCn1c(N)c(NCCC(C)C)c(=O)[nH]c1=O | inconclusive: 10.3 µM [cytotoxic, partial curve, poor fit] | –
30 | O=C(CN1CCOCC1)N1CCCc2c1c(=O)oc1ccc(OCc3ccccc3)cc21 | active: 18.4 µM | –
31 | C=CCSc1nnc(NC(=O)c2ccc(S(=O)(=O)NCC3CCCO3)cc2)s1 (stereo unspecified) | inconclusive: 16.4 µM [cytotoxic, single point] | –
32 | N#Cc1c(N)nc2c(c1-c1ccccc1)CCC2 | active: 10.3 µM | –
33 | COc1ccccc1CNC(=O)CCC1N=C2c3ccccc3N=C(SCC(=O)NCC3CCCO3)N2C1=O (stereo unspecified) | inconclusive: 20.6 µM [rising, single point] | –
34 | CCCOc1ccc(CSc2n[nH]c(C)n2)cc1 | inconclusive: 29.1 µM [cytotoxic, single point] | –
35 | Cc1cc(NC(=S)N(CCN2CCCCC2)Cc2ccco2)ccc1Cl | inconclusive: 14.6 µM [cytotoxic, single point] | –
36 | CC(C)(C)c1ccc(-c2nnc(-c3ccccc3NC(=O)c3ccc(F)cc3F)o2)cc1 | inactive | –
37 | c1ccc2c(c1)CCN(c1ncnc3c1[nH]c1ccccc13)C2 | active: 9.2 µM | –
38 | CCNC(=O)C(=O)Nc1ccc2c(c1)N(S(=O)(=O)c1cccs1)CCC2 | inconclusive: 29.1 µM [cytotoxic, single point] | –
39 | COC(=O)c1ccc2nc(-c3ccc(Cl)cc3)c(Cc3ccsc3)n2c1 | active: 20.6 µM | –
40 | COc1ccc(NS(=O)(=O)c2cc(NC(=O)c3cccc(OCc4c(C)noc4C)c3)ccc2OC)cc1 | inactive | –
41 | CCOC(=O)c1cnn(-c2ccc(C(C)C)cc2)c1NC(=O)C1CCC1 | inconclusive: 25.9 µM [cytotoxic, partial curve, poor fit] | –
42 | Nc1ccc(-n2nncc2-c2ccco2)cc1 | inconclusive: 35.5 µM [cytotoxic, single point] | –
43 | O=C(CSCC(=O)N1CCOCC1)Nc1nc(-c2ccccc2)cs1 | inactive | –
44 | O=C(CCN1CCCCC1)N1CCc2c([nH]c3ccccc23)C1c1cccnc1 (stereo unspecified) | inconclusive: 18.4 µM [cytotoxic, single point] | –
45 | O=C(C[C@H]1C/C=C\C[C@H](NC(=O)OCC2c3ccccc3-c3ccccc32)C(=O)OC[C@@H]2CCCN2C1=O)N[C@H](CO)Cc1ccccc1 | inconclusive: 3.26 µM [rising, partial curve, poor fit] | –
46 | Cc1c(C(=O)Nc2cccnc2Cl)oc2ccccc12 | inconclusive: 5.17 µM [cytotoxic, full curve] | –
47 | C=CCN1C(=O)C2C(C(=O)NC)C3(C)C=CC2(O3)C1C(=O)NCc1ccc(OC)cc1 (stereo unspecified) | inconclusive: 6.51 µM [rising, full curve, poor fit] | –
48 | CC(=O)Nc1ccc(S(=O)(=O)Nc2ccc3ccccc3n2)cc1 | inconclusive: 29.1 µM [rising, partial curve, poor fit] | –

Sorted by number of heavy atoms (ascending): part of the list above
Row | SMILES | Potency | activity change, negative = cytotoxicity
35 | Cc1cc(NC(=S)N(CCN2CCCCC2)Cc2ccco2)ccc1Cl | inconclusive: 14.6 µM [cytotoxic, single point] | –
40 | COc1ccc(NS(=O)(=O)c2cc(NC(=O)c3cccc(OCc4c(C)noc4C)c3)ccc2OC)cc1 | inactive | –
33 | COc1ccccc1CNC(=O)CCC1N=C2c3ccccc3N=C(SCC(=O)NCC3CCCO3)N2C1=O (stereo unspecified) | inconclusive: 20.6 µM [rising, single point] | –

Further results.

Row | SMILES | Potency | activity change, negative = cytotoxicity
49 | NNc1nc(-c2ccccc2)cc(-c2ccccc2O)n1 | active: 5.17 µM | –
50 | CC(Sc1nc2ccccc2n1C)C(=O)NC(c1ccccc1)c1ccccc1 (stereo unspecified) | active: 8.2 µM | –
51 | CC(=O)Nc1ccc(NC(=O)COC(=O)/C=C/c2ccc3c(c2)OCO3)cc1 | inactive | –
52 | Cc1ccc(CNC(=O)Nc2ccccc2)c(C)c1 | inactive | –
53 | CCCOC(=O)c1c(-c2ccc(C)cc2C)csc1NC(=O)C1C2CCC(O2)C1C(=O)O (stereo unspecified) | inconclusive: 6.51 µM [cytotoxic, partial curve, poor fit] | –
54 | O=C(Nc1ccc(Oc2ccccc2)nc1)C1CCCCN1Cc1ccco1 (stereo unspecified) | inconclusive: 2.91 µM [cytotoxic, full curve] | –
55 | CC(=O)Nc1ccc2c(c1)ncn2C | inactive | –
56 | COc1cc(/C=N/NS(=O)(=O)c2ccc(C)c([N+](=O)[O-])c2)ccc1O | inactive | –
57 | Cc1cccc2cc(CN(Cc3cccs3)C(=S)NCc3ccco3)c(=O)[nH]c12 | active: 3.66 µM | –
58 | COc1cc(Br)cc(C(=O)N2CCc3ccccc32)c1OC | inconclusive: 23.1 µM [cytotoxic, single point] | –
59 | CNC(=S)N(Cc1ccc2c(c1)OCO2)C1CC(=O)N(c2ccc(F)cc2)C1=O (stereo unspecified) | active: 16.4 µM | –
60 | Oc1ccc(-c2nc(-c3ccc(O)c(O)c3)cs2)cc1 | active: 2.06 µM | –
61 | O=C1N(C2CCCC2)C[C@@H]2C[C@@H](c3cccn3-c3nccs3)N3CCC[C@@]123 | inactive | –
62 | O=c1[nH]cnc2c1ccn2C1OC(CO)C(O)C1O (stereo unspecified) | active: 16.4 µM | –
63 | COc1cc2c(cc1OC)CN(C(C)C(=O)N1CCc3ccccc31)CC2 (stereo unspecified) | inconclusive: 23.1 µM [cytotoxic, single point] | –
64 | C[C@@]12CCC=C[C@H]1[C@H](c1ccc3ccccc3c1)N(Cc1ccccc1)C2=O | inconclusive: 8.2 µM [cytotoxic, partial curve, poor fit] | –
65 | Cc1cc(C)n2nc(SCC(=O)N(CCC#N)c3ccccc3F)nc2n1 | inactive | –
66 | CCOc1ccccc1NC(=O)Cn1nnc(C(=O)NCc2ccc3c(c2)OCO3)c1N | inconclusive: 16.4 µM [cytotoxic, single point] | –
67 | CCc1nc2ccccc2c(C(=O)OCC(=O)NC2CC2)c1C | inconclusive: 0.0366 µM [cytotoxic, full curve] | –
68 | O=C(N/N=C/c1ccc([N+](=O)[O-])o1)c1cc(-c2ccncc2)nc2ccccc12 | inconclusive: 15.8 µM [cytotoxic, single point] | –
69 | COc1ccc(-c2noc(C3CCCN(C(=O)c4ccc(F)cc4)C3)n2)cc1 (stereo unspecified) | inactive | –
70 | CCOC(=O)c1ccc(NC(=O)c2c(NCc3cccc(OC)c3OC)sc3c2CCC3)cc1 | inactive | –
71 | Cc1c(C(C)NC(=O)c2cc(COc3cccc4cnccc34)on2)cnn1C (stereo unspecified) | inconclusive: 1.46 µM [cytotoxic, partial curve, poor fit] | –
